Reference: doi:10.1101/2023.01.24.524588
No constants are given. Whether binding was seen depends on the method and setting. In cells and extracts the contact can be indirect. Binding can be weak; no strength is given.

Target: ClSca (Cellulosilyticum lentocellum DSM 5427)
Experiment: pull-down

- binding: binds
B1: Clole_2778 (protein, UniProt F2JK62 1-107)
chain: MIDYKKLTDDLVKAREAAEKAVTGEDGGTANLDSLTLKLKGYREVKVIEAVKAAGLYTRGKREWIGTRYFIGPPVGAQGNDRVRQVEAMYKVMEDLGYDVLMFCQMD
